# The list shows a part of the results. These are further read-outs of the screen, such as a control signal, another cell line or another target. No call is given for them. Compounds called inactive in the main read-out are mostly missing here. Words in brackets tell the shape of the fitted curve; partial curves, single points and poor fits give uncertain potencies.
# Assay: qHTS Assay for Lipid Storage Modulators in Drosophila S3 Cells;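 as to cell number change: cells counted by Cell Tracker Red CMTPX staining in the red channel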
# Conditions: BODIPY lipid droplet fluorescence, 18-24 h; for cell number change: measured here: cell count max response, cells fed with added oleic acid
# Method in brief: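 Laser-scanning cytometry quantifies lipid droplet accumulation (500–530 nm total intensity; droplet/cell object ratio) in oleic acid-fed (400 uM added) Drosophila S3 cells treated with a concentration series. 20 uM Triacsin C defined 100% inhibition.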
# [1] = measured here: lipid fluorescence (Fed channel) AC50, cells fed with added oleic acid
# [2] = measured here: cell number channel AC50, cells fed with added oleic acid
SMILES,AC50 [1],cell number change [%],AC50 [2]
Cc1nc(C)c(C(=O)OCC(=O)Nc2cccc(C)c2C)s1,"14.6 µM [falling, partial curve]",,
Cc1ccccc1Sc1ncnc2onc(C)c12,,-87.5,"23.1 µM [falling, partial curve]"
Cc1ccccc1NC(=O)C1CCCN(S(=O)(=O)c2ccc3c(c2)C(C)(C)C(=O)N3C)C1 (configuration not stated),"5.8 µM [rising, single point]",-7.49,
COCCn1nnnc1C(c1cc2cc(C)ccc2[nH]c1=O)N1CCCCCC1 (configuration not stated),,18.5,"0.82 µM [rising, partial curve, poor fit]"
CC(C)C[C@@H](CC#N)N1CCN(CCc2ccccc2)CCC1=O,"20.6 µM [falling, single point]",10.5,
NC(=O)Cc1nc2scc(-c3ccc(Cl)cc3)c2c(=O)[nH]1,,40.8,"2.31 µM [falling, partial curve]"
Cc1ccc(NC(=O)/C(=C\c2ccco2)NC(=O)c2ccco2)cc1,"35.5 µM [rising, single point]",3.95,
COc1ccc(C(=O)NC(=S)NCc2cccnc2)cc1Cl,"5.62 µM [falling, single point]",51.3,"16.4 µM [rising, partial curve, poor fit]"
COc1ccc(/C=N/NC(=O)Cc2n[nH]c(=O)[nH]c2=O)cc1,"20.6 µM [rising, single point]",-12.1,
C/C(=N\NC(=O)C1(C)CC1(Br)Br)c1cccc(NC(=O)C2CCC2)c1 (configuration not stated),"2.06 µM [rising, partial curve, poor fit]",,
Cc1ncc(S(=O)(=O)c2ccccc2)c(-c2ccccc2Cl)n1,,15.2,
COCCNC(=O)COc1ncnc2scc(-c3ccc(F)cc3)c12,,-35.1,"11.6 µM [falling, partial curve, poor fit]"
CCCOc1ccc(-c2c(C(=O)N/N=C(\C)c3ccncc3)nnn2-c2nonc2N)cc1,"4.61 µM [falling, full curve]",-21.2,"0.00517 µM [falling, full curve, poor fit]"
CC1CCCCC1NC(=O)CSc1nnc(CN2CCOCC2)n1C (configuration not stated),"23.1 µM [falling, partial curve]",-27,
CC1CCN(c2nc3ccccn3c(=O)c2C=O)CC1,"0.58 µM [falling, full curve, poor fit]",17.8,
COCc1ccc(CN2CCC(CO)(CC3CCCCO3)CC2)o1 (configuration not stated),,-1.75,"7.31 µM [falling, partial curve, poor fit]"
Cc1ccnc(SCc2cn3c(C)cccc3n2)n1,,-4,
O=C(NCc1ccncc1)c1cc2ccccc2nc1Cl,"0.461 µM [rising, single point]",50,"29.1 µM [rising, single point]"
Cc1ccc(NC(=O)c2c(C)noc2-c2snnc2C)cc1,"0.00461 µM [rising, full curve]",4.65,"0.00461 µM [rising, full curve, poor fit]"
O=C(Nc1nc2ccccc2[nH]1)c1ccccc1,"5.8 µM [rising, single point]",,

SMILES,AC50 [1],cell number change [%],AC50 [2]
CCN(C(=O)CSc1nnnn1-c1cc(C)ccc1OC)C1CCS(=O)(=O)C1 (configuration not stated),"5.8 µM [rising, single point]",3.33,
CC(=O)Nc1ccc(NC(=O)c2nc(S(=O)(=O)Cc3cccc(C)c3)ncc2Cl)cc1,"3.66 µM [falling, full curve]",19.8,
Cc1ccc(S(=O)(=O)c2cc(OC(=O)c3ccco3)ccc2OC(=O)c2ccco2)cc1,"5.17 µM [falling, full curve, poor fit]",-35.4,"6.51 µM [falling, partial curve]"
CCc1ccccc1NC(=O)c1ccc2snnc2c1,"29.1 µM [rising, single point]",24.9,
COc1ccc(N2CCN(C(=S)Nc3ccc(OC)cc3OC)CC2)cc1,,12.9,
S=c1[nH]ncn1/N=C/c1ccc(N2CCOCC2)cc1,"6.51 µM [rising, single point]",,
COc1ccc(S(=O)(=O)N2CCCC2CNC(=O)C(=O)NCc2cccs2)cc1 (configuration not stated),"18.4 µM [falling, single point]",-19.2,
Oc1cc(OCc2ccccc2)ccc1-c1[nH]ncc1-c1ccccc1,"25.9 µM [falling, single point]",-59.4,
O=C(Nc1ccc2c(c1)OCO2)N1CCN(c2ccccc2)CC1,,3.66,
CCOc1ccc(C(=O)NC(=S)N(Cc2ccccc2)Cc2ccccc2)cc1,"8.2 µM [falling, partial curve]",-29.2,
Cc1cc(OCCCC(=O)NCCN2C(=O)S/C(=C\c3cccnc3)C2=O)ccc1Cl,"29.1 µM [falling, single point]",51.5,"4.61 µM [rising, full curve]"
Cc1nnc(NC(=O)C2CCN(S(=O)(=O)c3cc([N+](=O)[O-])ccc3Cl)CC2)o1,"0.00517 µM [rising, full curve, poor fit]",-3.81,
COc1ccc(CCN2CC(C(=O)NCc3ccco3)CC2=O)cc1OC (configuration not stated),"4.61 µM [falling, partial curve, poor fit]",1.57,
O=[N+]([O-])c1ccccc1/C=N\N1CCN(Cc2ccccc2Cl)CC1,,-9.84,
NC1=NC2(CCC(c3ccccc3)CC2)n2c(nc3ccccc32)N1 (configuration not stated),"0.259 µM [rising, full curve, poor fit]",39,"0.411 µM [rising, full curve, poor fit]"
CC(Sc1nnc(Cc2cccs2)n1C1CCCCC1)C(=O)NCc1ccco1 (configuration not stated),"6.51 µM [rising, single point]",-3.44,
COc1ccc(/C(C)=N/NC(=O)c2nnn(-c3nonc3N)c2-c2ccccc2)cc1,,183,"25.9 µM [rising, partial curve]"
O=C(c1ccc(-c2ccccc2Cl)o1)N1CCN(c2ccccc2O)CC1,,-20.9,
COc1ccc(COc2ccsc2C(=O)Nc2ccc(Cl)cc2)cc1,,1.56,
CC1CCC2(CC1)NC(=O)N(CC(=O)Nc1ccc3[nH]c(=O)[nH]c3c1)C2=O (configuration not stated),"0.82 µM [falling, full curve]",-23.8,"0.82 µM [falling, full curve, poor fit]"

# Record cards, as listed above:
# `O=C(NCc1ccncc1)c1cc2ccccc2nc1Cl` in the list: AC50 [1]: 0.461 µM [rising, single point]; cell number change [%]: 50; AC50 [2]: 29.1 µM [rising, single point]
# `Cc1nc(C)c(C(=O)OCC(=O)Nc2cccc(C)c2C)s1` in the list: AC50 [1]: 14.6 µM [falling, partial curve]
# `NC(=O)Cc1nc2scc(-c3ccc(Cl)cc3)c2c(=O)[nH]1` in the list: cell number change [%]: 40.8; AC50 [2]: 2.31 µM [falling, partial curve]
# `Cc1ccc(NC(=O)/C(=C\c2ccco2)NC(=O)c2ccco2)cc1` in the list: AC50 [1]: 35.5 µM [rising, single point]; cell number change [%]: 3.95

# Remaining list, next part:

SMILES,AC50 [1],cell number change [%],AC50 [2]
CCC(C)C(NC(=O)C1CCC(C)CC1)C(=O)NCc1ccccn1 (configuration not stated),,-23.4,"4.11 µM [falling, partial curve, poor fit]"
COc1ccc(CCNC(=O)CSc2nnc(CNC(=O)c3cc(OC)c(OC)c(OC)c3)o2)cc1OC,"0.58 µM [falling, single point]",5.38,
O=C(Cn1cnnn1)Nc1cccc(S(=O)(=O)N2CCCCC2)c1,,8.77,
COc1ccc(N2CCN(C(=S)Nc3ccc(F)cc3)CC2)cc1,"20.6 µM [rising, single point]",6.57,
O=C(CN(Cc1ccccc1)S(=O)(=O)c1ccccc1)N/N=C/c1ccc2c(c1)OCO2,"0.731 µM [rising, full curve, poor fit]",14.8,
O=C(CC1C(=O)NCCN1C(=O)c1ccc(Cl)cc1)Nc1ccc(F)cc1 (configuration not stated),"6.51 µM [rising, single point]",19.4,
O=C(O)CSc1nnc(CNc2ccc(F)cc2)n1-c1ccccc1,"18.4 µM [falling, single point]",-38.7,"16.4 µM [falling, single point]"
CCOC(=O)c1sc(NC(=O)CSc2nc(-c3ccco3)cc(C(F)(F)F)n2)c(C#N)c1C,"0.58 µM [rising, single point]",111,"0.291 µM [rising, single point]"
O=C(NC1CCCC1)C(c1c(F)cccc1Cl)N(C(=O)c1csnn1)C1CC1 (configuration not stated),"20.6 µM [falling, partial curve]",,
O=C(Nc1ncccn1)C1CCCCC1,"29.1 µM [rising, single point]",,
O=C(Nc1cc(Cl)cc(Cl)c1)c1cccnc1,"0.103 µM [falling, full curve, poor fit]",1.09,
CCCN1C(=O)/C(=N\OCC(=O)NC23CC4CC(CC(C4)C2)C3)c2ccccc21,"3.66 µM [falling, full curve]",-54.3,"7.31 µM [falling, partial curve]"
Cc1ccc(O)c(NC(=O)c2cc(C)no2)c1,,7.21,
CS(=O)(=O)c1ccc(Cl)c(NC(=O)COC(=O)CCCN2C(=O)c3cccc4cccc(c34)C2=O)c1,,14.5,
CCOc1ccc(/C=N/NC(=O)c2nnn(-c3nonc3N)c2COc2ccc(F)cc2)cc1,"0.103 µM [rising, full curve, poor fit]",-1.09,
CCc1nc2ccc(C(=O)N3CCN(c4cccc(C)c4C)CC3)cc2nc1CC,"29.1 µM [rising, single point]",38.5,"11.6 µM [rising, partial curve]"
COCCn1c(=O)c2c(nc3n2CCCN3CCc2ccccc2)n(C)c1=O,,-0.704,
Cc1cccc(C(C)C)c1NC(=O)c1cccnc1,"14.6 µM [falling, partial curve]",18.6,
O=[N+]([O-])c1c(NCCO)cc(Sc2nc3ccccc3s2)c2nonc12,"18.4 µM [falling, partial curve]",-71.4,"13 µM [falling, partial curve]"
CCOC(=O)c1cc(CC)sc1NC(=O)COc1ccc2c(C)cc(=O)oc2c1,"4.61 µM [rising, partial curve, poor fit]",-67.9,"29.1 µM [falling, single point]"

# — PubChem BioAssay AID2685 (National Center for Advancing Translational Sciences (NCATS), 2010)
